No constants are given. Whether binding was seen depends on the method and setting. For part of these data: Binding seen in cells or lysates may run through a third protein. Some results given as binding are weak or reduced against the parent protein; the word gives no strength. For part of these data: Where a sequence is shown, tags or fusion partners need not be part of it.

The chains behind the UniProt entries cited, without tags or fusion partners. Where a name states a change or a piece, a line headed by the entry shows the natural chain unless it says otherwise. Residues count along the entry.
UniProt Q05775, residues 136-265: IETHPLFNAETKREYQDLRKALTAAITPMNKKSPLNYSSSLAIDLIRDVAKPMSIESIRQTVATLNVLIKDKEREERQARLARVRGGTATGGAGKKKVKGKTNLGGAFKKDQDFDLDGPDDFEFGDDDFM
UniProt O75822: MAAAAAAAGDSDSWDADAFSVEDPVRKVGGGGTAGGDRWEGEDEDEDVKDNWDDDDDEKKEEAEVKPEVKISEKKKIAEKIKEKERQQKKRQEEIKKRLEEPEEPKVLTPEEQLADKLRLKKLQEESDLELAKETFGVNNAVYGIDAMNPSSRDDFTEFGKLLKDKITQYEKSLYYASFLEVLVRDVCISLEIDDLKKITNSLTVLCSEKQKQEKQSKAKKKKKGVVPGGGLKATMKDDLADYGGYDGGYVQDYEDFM
UniProt P0CX29: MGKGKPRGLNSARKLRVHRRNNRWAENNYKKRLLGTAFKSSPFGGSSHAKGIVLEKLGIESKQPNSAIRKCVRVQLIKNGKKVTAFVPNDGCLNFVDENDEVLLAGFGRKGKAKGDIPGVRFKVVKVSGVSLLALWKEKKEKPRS

Experiment [1] concerns the target GST-j/hcr1-CTD [136-265] (S. cerevisiae) (UniProt Q05775). Description: pull-down; GST fusions from E. coli immobilized on glutathione-Sepharose beads, incubated with 10 μl of in vitro-synthesized 35S-labeled partner at 4°C for 2 h; washed 3 times with phosphate-buffered saline; SDS-PAGE, autoradiography; only the target purified.
The target of the next experiment is T1, GST-RPS2 (S. cerevisiae) (UniProt P25443).
T1 sequence: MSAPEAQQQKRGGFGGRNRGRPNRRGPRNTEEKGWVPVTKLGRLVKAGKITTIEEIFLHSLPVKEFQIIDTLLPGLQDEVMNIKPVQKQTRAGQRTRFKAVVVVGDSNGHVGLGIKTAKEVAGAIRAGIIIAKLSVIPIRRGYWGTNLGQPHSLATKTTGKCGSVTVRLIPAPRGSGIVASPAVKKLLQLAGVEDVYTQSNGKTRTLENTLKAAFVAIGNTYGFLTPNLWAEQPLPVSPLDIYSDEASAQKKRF
The experiment is described as above.

Another experiment addresses T2, heIF3j-D50K-D53K-D57K (human, UniProt O75822 1-258, D50K | D53K | D57K).
T2 construct: human eIF3j, full length, D50K, D53K and D57K; source: E. coli BL21(DE3), purified (nickel-chelating column, TEV cleavage, second nickel column)
Description: ITC; VP-ITC; cell: 50 μM full-length heIF3j wt or mutant; syringe: 1 mM heIF3b-RRM; 20 mM Hepes pH 7.5, 200 mM NaCl, 25°C; both purified.

The next experiment has as its target T3, heIF3j-W52A (human, UniProt O75822 1-258, W52A).
T3 construct: human eIF3j, full length, W52A; source: E. coli BL21(DE3), purified (nickel-chelating column, TEV cleavage, second nickel column)
The experiment is described as above.

Another experiment has as its target T4, heIF3j-N51A-W52A (human, UniProt O75822 1-258, N51A | W52A).
T4 construct: human eIF3j, full length, N51A and W52A; source: E. coli BL21(DE3), purified (nickel-chelating column, TEV cleavage, second nickel column)
Described as above.

As to “35S-labeled wt RPS23 (from UniProt P0CX29 1-145)”, the binding result in experiment [1] is listed as “binds weakly”.

Take “35S-labeled j/hcr1-CTD (from UniProt Q05775 136-265) (domain or fragment)”: the binding result with GST-RPS2 (S. cerevisiae) is given as “binds weakly”.

B1: 35S-labeled wt RPS2 (protein, UniProt P25443 1-254)
chain: MSAPEAQQQKRGGFGGRNRGRPNRRGPRNTEEKGWVPVTKLGRLVKAGKITTIEEIFLHSLPVKEFQIIDTLLPGLQDEVMNIKPVQKQTRAGQRTRFKAVVVVGDSNGHVGLGIKTAKEVAGAIRAGIIIAKLSVIPIRRGYWGTNLGQPHSLATKTTGKCGSVTVRLIPAPRGSGIVASPAVKKLLQLAGVEDVYTQSNGKTRTLENTLKAAFVAIGNTYGFLTPNLWAEQPLPVSPLDIYSDEASAQKKRF
Consider B1, for which the binding entry in experiment [1] is listed as “binds weakly”.

B2: heIF3b-RRM_(170-274) (domain or fragment, human, UniProt P55884 170-274, looked up)
chain: GDVLKDRPQEADGIDSVIVVDNVPQVGPDRLEKLKNVIHKIFSKFGKITNDFYPEEDGKTKGYIFLEYASPAHAVDAVKNADGYKLDKQHTFRVNLFTDFDKYMT
notes: 13C/15N-labeled in some NMR samples; The limits are printed for the NMR complex; the ITC names only heIF3b-RRM; also called human eIF3b-RRM; heIF3b-RRM domain; source: E. coli BL21(DE3), purified (nickel-chelating column, TEV cleavage, second nickel column)
As for B2, the binding result with heIF3j-D50K-D53K-D57K, with heIF3j-W52A and with heIF3j-N51A-W52A was “no binding (tested: Kd values larger than 10 mM)” each time.

These data come from article PMC2824034, “The indispensable N-terminal half of eIF3j/HCR1 co-operates with its structurally conserved binding partner eIF3b/PRT1-RRM and eIF1A in stringent AUG selection” (Journal of molecular biology, 2010).
